# Laboratory results from PubChem BioAssay AID540275 (National Center for Advancing Translational Sciences (NCATS), 2011).
# By UniProt entry, the sequences of proteins in these tests, tags left out.
# UniProt Q8NER1, whole entry, looked up: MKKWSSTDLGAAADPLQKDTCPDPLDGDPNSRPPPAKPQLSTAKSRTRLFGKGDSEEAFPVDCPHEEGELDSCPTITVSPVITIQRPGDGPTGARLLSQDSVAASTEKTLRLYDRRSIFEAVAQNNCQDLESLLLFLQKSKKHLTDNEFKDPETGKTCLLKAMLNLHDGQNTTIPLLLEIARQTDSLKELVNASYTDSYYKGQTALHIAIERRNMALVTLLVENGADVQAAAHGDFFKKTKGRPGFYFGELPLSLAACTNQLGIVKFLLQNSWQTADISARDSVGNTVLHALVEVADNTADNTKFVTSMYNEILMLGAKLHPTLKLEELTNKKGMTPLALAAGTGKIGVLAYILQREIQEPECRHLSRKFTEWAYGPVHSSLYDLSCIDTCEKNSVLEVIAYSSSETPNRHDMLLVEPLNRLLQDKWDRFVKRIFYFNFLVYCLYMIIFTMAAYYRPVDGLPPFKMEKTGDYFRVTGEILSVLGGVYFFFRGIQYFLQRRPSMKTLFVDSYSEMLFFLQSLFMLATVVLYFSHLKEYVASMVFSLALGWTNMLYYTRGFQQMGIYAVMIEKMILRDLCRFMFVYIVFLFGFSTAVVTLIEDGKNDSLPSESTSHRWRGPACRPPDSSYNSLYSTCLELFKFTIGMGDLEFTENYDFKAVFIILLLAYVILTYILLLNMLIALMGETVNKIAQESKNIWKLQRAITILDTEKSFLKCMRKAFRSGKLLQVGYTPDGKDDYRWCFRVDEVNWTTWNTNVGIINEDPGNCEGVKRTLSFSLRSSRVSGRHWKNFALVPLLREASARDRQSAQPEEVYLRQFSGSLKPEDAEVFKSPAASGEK
# In all, about 320,000 compounds went through this assay and about 620 (0.19%) were called active. This list was built around the results that the source calls inconclusive (neither active nor inactive); the mix of calls is not that of the screen. Cut-off read from the data, not from the text of the source: active = activation above about 80%; inconclusive = between about 30% and that limit; inactive = weaker than that.
# Target: Transient receptor potential cation channel subfamily V member 1 (Homo sapiens) (UniProt Q8NER1)
# Assay: HTS Assay for Compounds that Act as Agonists of the Vanilloid Receptor 1; note: 0% is about no effect
# Conditions: TRPV1-expressing cells, Fluo-8 calcium influx, agonist mode; at 8.33 µM, stronger effect = higher value
# Summary of the method: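 TRPV1-expressing cells were cultured overnight at 35.5C and loaded with Fluo-8 calcium dye for 40 to 90 min at room temperature. After a 10 s baseline, compound was added and calcium influx was read kinetically for 3 min (ex 480/em 520 nm).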
row,Structure (SMILES),activation
1,Cc1cc(S(=O)(=O)N(Cc2ccccn2)Cc2ccco2)ccc1-n1cnnn1,inconclusive: 52.5%
2,COc1ccc2[nH]c(=O)c(C(c3nnnn3C3CCCC3)N(C)C3CCCCC3)cc2c1 (centres undefined),inconclusive: 36.3%
3,O=C(NC(=S)NCCc1ccccc1)c1ccco1,inconclusive: 36.8%
4,COc1ccc(CC(=O)Nc2ccccc2Oc2ccccc2)cc1,inconclusive: 38%
5,Cc1ccc(SC(C)C(=O)Nc2ccncc2)cc1 (centres undefined),inconclusive: 73.1%
6,C[C@@H]1CC=C[C@H]2[C@H]1C(=O)N(Cc1ccccc1)[C@H]2c1ccc(C(F)(F)F)cc1,inconclusive: 37.8%
7,CCc1cc(-c2n[nH]c(C)c2-c2ccccc2Cl)c(O)cc1OC,inactive: -0.964%
8,Cc1ccc(NCCC(=O)c2ccccc2)cc1Cl,inconclusive: 78.4%
9,O=C(Nc1cc(F)c(Br)cc1F)c1ccc(Cl)cc1,inconclusive: 66%
10,O=C(Cn1cc2c(n1)CCCCC2)N1CCc2ccccc21,inactive: 4.6%
11,NC(=O)C1CCN(C(=O)c2ccc(-c3ccccc3)cc2)CC1,inconclusive: 60.8%
12,O=C(Nc1cccc(C(=O)O)c1)Nc1ccc2c(c1)OCO2,inactive: 2.93%
13,c1ccc(-c2nc(-c3cccs3)[nH]c2-c2ccccc2)cc1,inactive: 16.6%
14,Cc1cccc(OCC(=O)N(Cc2cccs2)C2CCS(=O)(=O)C2)c1 (centres undefined),inactive: 2.89%
15,Clc1ccc(Nc2nc(NCCN3CCOCC3)nc(N3CCOCC3)n2)cc1,inconclusive: 60.2%
16,Cc1cc(-c2nnc(SCC(=O)Nc3nc(-c4ccc(Cl)cc4)cs3)o2)no1,inactive: 0.41%
17,O=C(Nc1ccc2c(c1)OCO2)c1ccc[n+]([O-])c1,inactive: -0.0762%
18,CCc1nnc(NC(=O)c2ccc3ccccc3n2)s1,inactive: -11.9%
19,O=C(Nc1ccc(S(=O)(=O)N2CCOCC2)cc1)c1ccc(S(=O)(=O)N2CCOCC2)cc1,inconclusive: 53.9%
20,COC(=O)CN1C(c2ccccc2O)Nc2ccc(Br)cc2C1c1ccccc1 (centres undefined),inconclusive: 32.4%
21,CN(C)c1ccc(NC(=O)c2cnsn2)cc1,inactive: 19.3%
22,O=C(N/N=C/c1cccnc1)c1ccc(NC(=O)c2ccc(Cl)cc2)cc1,inconclusive: 56.5%
23,Cc1noc(N)c1C(=O)Nc1ccc(C(C)(C)C)cc1,inconclusive: 67.7%
24,Cc1noc(COc2ccccc2OCc2onc(C)c2Cl)c1Cl,inconclusive: 33.8%

row,Structure (SMILES),activation
1,CC(C)Cn1c(/C=C/c2ccco2)nc2ccccc21,inactive: 16.2%
2,CC(=O)c1cc(C#N)c(SCC(=O)OC(C)C)nc1C,inconclusive: 33.6%
3,Fc1ccc(NC(=S)Nc2nccs2)cc1,inactive: 12.3%
4,CCCCCCCCNC1=CC(=O)CC(C)(C)C1,inconclusive: 54.4%
5,Cc1cc(C(=O)COC(=O)c2ccc(O)cc2)c(C)n1CC1CCCO1 (centres undefined),inconclusive: 34.5%
6,Cc1ncoc1C(=O)N1CCCC(C(=O)Nc2cccc(-c3ccc(F)cc3)c2)C1 (centres undefined),inconclusive: 40%
7,CC1(C)CC(=O)c2c(O)cc(OCC(=O)Nc3ccc(CCO)cc3)cc2O1,inconclusive: 78.9%
8,O=C(CCCN1C(=O)c2ccccc2C1=O)NCCCn1ccnc1,inactive: -6.5%
9,COc1cccc(CC(=O)Nc2nc(-c3ccc(F)c(F)c3)cs2)c1,inconclusive: 71.5%
10,O=C(N/N=C/c1cc([N+](=O)[O-])ccc1O)c1cccc(NC(=O)c2cccc(Cl)c2)c1,inactive: -1.68%
11,COC(=O)c1ccccc1NC(=O)C1CCCCC1C(=O)O (centres undefined),inactive: 1.52%
12,COc1ccc(C(=O)NCCSCc2cccc(Cl)c2)cc1OC,inconclusive: 31.5%
13,N#C/C(=C\c1coc2ccccc2c1=O)C(N)=S,inactive: -3.6%
14,COc1ccccc1NC(=O)Nc1ccnn1C1CCN(C(=O)c2ccccn2)CC1,inactive: -0.895%
15,Cc1cccn2c(=O)c3cc(C(=O)NC4CCCCC4)n(C)c3nc12,inconclusive: 52%
16,CCC(CC)C(=O)Nc1nnc(SCC(=O)NC(C)(C)C)s1,inactive: 2.95%
17,Cc1cccnc1NC(=O)c1ccc(Cl)c(S(=O)(=O)N2CCCCCC2)c1,inconclusive: 36.5%
18,Cc1ccc(Nc2nc(C(=O)NCC3CCCO3)cs2)cc1 (centres undefined),inconclusive: 37.3%
19,CN1CCN(C2=C(Cl)C(=O)N(CCc3ccccc3)C2=O)CC1,inconclusive: 30.1%
20,CCOC(CNC(=O)c1ccc(N2CCc3ccccc32)c([N+](=O)[O-])c1)OCC,inactive: 2.81%
21,O=C(N/C=C/c1ccccc1)Nc1ccc(Cl)cc1,inconclusive: 65.9%
22,Cc1ccc(NC(=O)OCc2cccs2)cc1,inconclusive: 45.4%
23,CN1CCN(c2ccccc2NC(=O)c2ccc(N3CCCC3)c([N+](=O)[O-])c2)CC1,inactive: 18.5%
24,CC(Oc1ccccc1C(N)=O)C(=O)Nc1ccc(S(=O)(=O)N2CCCC2)cc1 (centres undefined),inconclusive: 45.6%

row,Structure (SMILES),activation
1,Cc1c(C(=O)N2CCN(c3ncccn3)CC2)oc2ccc(Cl)cc12,inactive: 6.07%
2,CC(C)Nc1nnc(SCC(=O)N2CCN(C(=O)c3ccco3)CC2)s1,inactive: -6.46%
3,Cn1cnc([N+](=O)[O-])c1Oc1cccc(O)c1,inactive: 1.4%
4,COc1ccc(NC(=O)c2ccc(-c3ccc(-c4noc(C)n4)cc3C)cc2)cc1N1CCN(C)CC1,inactive: -0.469%
5,Cc1ccc(CNC(=O)CSc2nc3ccccc3[nH]2)cc1,inconclusive: 36.1%
6,OCC1(CCc2ccccc2)CCN(Cc2cc(Cl)ccc2O)CC1,inactive: 4.74%
7,CC1CCN(C(=O)C2CCN(c3nnc(-n4cccc4)s3)CC2)CC1,inconclusive: 49%
8,CC(C)(C)c1ccc(C(=O)Nc2ccc(Oc3cccnc3)nc2)cc1,inconclusive: 58.4%
9,CCCc1[nH]c2ccc(C#N)cc2c1CCC,inconclusive: 36%
10,CC(/C=N/NC(=O)c1c(Br)cnn1C)=C\c1ccccc1,inconclusive: 33.5%
11,Nc1nc(-c2ccccc2)cc(-c2ccccc2)n1,inconclusive: 62.1%
12,CC(C)(C)C(=O)CN1C(=O)NC(C)(Cc2ccc3c(c2)OCO3)C1=O (centres undefined),inactive: -0.197%
13,O=C(c1cc2ncc(CCCl)cn2n1)N1CCCCCC1,inactive: 5.05%
14,C/C(Cl)=C/CSc1nn2c(=O)c3ccccc3nc2s1,inconclusive: 39.2%
15,COCCCNc1ccnc2c(Cl)cccc12,inactive: 2.29%
16,CCCNC(=S)N1CCC(C(=O)c2ccc(F)cc2)CC1,inactive: 23.2%
17,CCCOc1ccc(-c2cn3ccccc3n2)cc1,inconclusive: 44.1%
18,Cc1ccc(NC(=O)C(=O)NCCc2c[nH]c3ccccc23)c(C)c1,inconclusive: 32.5%
19,CCN(CC(=O)NCc1ccc(F)cc1)C(=O)CN1CCN(c2cc(Cl)ccc2C)CC1,inactive: 3.88%
20,C[C@H]1CCC(=O)N([C@H](CSc2ccc(Br)cc2)Cc2ccccc2)CC1,inconclusive: 41.9%
21,Cc1cc(C)cc(OCC(=O)Nc2ccc3c(c2)OCO3)c1,inconclusive: 46.5%
22,N/C(Cc1ccc([N+](=O)[O-])cc1)=N\OC(=O)C(c1ccccc1)c1ccccc1,inactive: 0.446%
23,Cc1nnc(NC(=O)C2CC(=O)N(c3ccc4c(c3)OCCO4)C2)s1 (centres undefined),inactive: 0.445%
24,Cc1occc1-c1nnc(SCC(=O)NC(C)(C)C)n1CC(C)C,inconclusive: 35.4%

# A second format for part of the listing above.
row | Structure (SMILES) | activation
19 | CCN(CC(=O)NCc1ccc(F)cc1)C(=O)CN1CCN(c2cc(Cl)ccc2C)CC1 | inactive: 3.88%
20 | C[C@H]1CCC(=O)N([C@H](CSc2ccc(Br)cc2)Cc2ccccc2)CC1 | inconclusive: 41.9%
21 | Cc1cc(C)cc(OCC(=O)Nc2ccc3c(c2)OCO3)c1 | inconclusive: 46.5%
22 | N/C(Cc1ccc([N+](=O)[O-])cc1)=N\OC(=O)C(c1ccccc1)c1ccccc1 | inactive: 0.446%
23 | Cc1nnc(NC(=O)C2CC(=O)N(c3ccc4c(c3)OCCO4)C2)s1 (centres undefined) | inactive: 0.445%

# Carrying on:

row,Structure (SMILES),activation
1,Cc1ccc(N2CCN(C(=O)c3ccccc3)CC2)c(C)c1,inconclusive: 66.1%
2,CCc1ccc(-c2cc(C)no2)cc1S(=O)(=O)N1CCN(C(=O)c2ccco2)CC1,inconclusive: 39.7%
3,COCCNC(=S)N(CCc1c(C)[nH]c2ccc(F)cc12)Cc1cccs1,inconclusive: 30.6%
4,Cc1ccc(/C=C(\C#N)c2nc3ccccc3[nH]2)s1,inconclusive: 44.4%
5,CCCCc1nc2cc(C(=O)NCc3cn(C)nc3C)ccc2o1,inactive: -2.78%
6,Cc1c(OCC(=O)NCC(O)c2ccccc2)ccc2c(-c3ccccc3)cc(=O)oc12 (centres undefined),inactive: -6.46%
7,Cc1ccc(SCCC(=O)NCc2ccncc2)cc1,inconclusive: 72.2%
8,CC(C)CNC(=O)c1cccc(NC(=O)Cc2ccc(Cl)cc2)c1,inactive: 5.22%
9,CCCn1nnc(NC(=O)c2cccc(OCC(C)C)c2)n1,inconclusive: 37.9%
10,Cc1ccc(Cc2cnc(NC(=O)CN3CCOCC3)s2)cc1Cl,inconclusive: 31.8%
11,Cn1cccc1C(=O)OCC(=O)Nc1cc(C(C)(C)C)nn1-c1ccccc1,inactive: 1.55%
12,O=C(/C=C/c1ccc(F)cc1)NCCc1ccc2c(c1)OCCO2,inconclusive: 31.5%
13,COc1ccc(CCCC(=O)N/N=C/c2ccc(C)cc2)cc1,inconclusive: 33.6%
14,Cc1ccc(O)c(C(=O)c2coc(=N)c(C(=O)NC(C)C)c2)c1,inactive: 1.84%
15,Cc1cccc(NC(=S)NCCc2ccc(Cl)cc2)c1C,inconclusive: 36.6%
16,Cc1c(C(=O)NCC2CCCO2)oc2ccc(S(=O)(=O)N3CCCCC3)cc12 (centres undefined),inconclusive: 67.3%
17,CCC(Oc1ccccc1)C(=O)Nc1ccccc1N1CCCC1 (centres undefined),inconclusive: 43.4%
18,CCCCn1c(=S)[nH]c2c(oc3ccc(Cl)cc32)c1=O,inactive: -0.95%
19,CCCc1nc2ccc(NC(C)=O)cc2c(=O)n1Cc1ccccc1Cl,inconclusive: 42.4%
20,COc1ccccc1C(=O)Nc1ccnn1C1CCN(CCC(C)c2ccc(C)o2)CC1 (centres undefined),inactive: 5.14%
21,Brc1ccc(-c2nnc(-c3ccco3)o2)cc1,inconclusive: 52.5%
22,O=C(c1ccc(Br)o1)N1CCN(c2ccc(F)cc2)CC1,inconclusive: 58.8%
